PubChem BioAssay AID1224830 – NIAID – 2016
Shown is an unselected part of about 18,000 deposited reagents. Over the whole deposit, about 2,900 (16%) got an active call. 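Calls are made per well; low scores hint the gene aids the LPS response, high scores that it dampens it.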 A number with no mark means an inactive call. Repeated entries: four replicate wells of each siRNA pool. Reagent sequences are not shown.

Aim: 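Host factors that control LPS-induced TNF expression in human macrophages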 (primary screen)
Cells: human THP-1 monocytic leukaemia cells, TNF dual-luciferase reporter clone, PMA-differentiated to macrophage-like cells
Reagent: siRNA pool against human genes, 50 nM
Duration: LPS for 4 h, given about 3 days after siRNA transfection
Treatment: bacterial LPS (TLR4 ligand), 10 ng/ml
Measurement: 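Ratio of firefly to renilla light, scaled to the plate median and expressed as a robust z-score per replicate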
Direction: TNF reporter robust z-score: higher = stronger TNF reporter response to LPS
Active means: 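Each well counts as active if its z-score is over 2.8 or under -1.5; controls are left without a call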

Target gene | TNF reporter robust z-score
LMNTD1 (lamin tail domain containing 1) | -0.38
LMNTD1 (lamin tail domain containing 1) | -0.23
LMNTD1 (lamin tail domain containing 1) | 0
LMNTD1 (lamin tail domain containing 1) | 1.59
PEX11A (peroxisomal biogenesis factor 11 alpha) | -0.99
PEX11A (peroxisomal biogenesis factor 11 alpha) | -0.71
PEX11A (peroxisomal biogenesis factor 11 alpha) | -0.59
PEX11A (peroxisomal biogenesis factor 11 alpha) | -0.24
MED8 (mediator complex subunit 8) | -1.48
MED8 (mediator complex subunit 8) | -1.03
MED8 (mediator complex subunit 8) | -1.15
MED8 (mediator complex subunit 8) | -1.14
NMT2 (N-myristoyltransferase 2) | -0.56
NMT2 (N-myristoyltransferase 2) | -0.83
NMT2 (N-myristoyltransferase 2) | 0.42
NMT2 (N-myristoyltransferase 2) | 0.18
ZNF721 (zinc finger protein 721) | -0.32
ZNF721 (zinc finger protein 721) | -0.07
ZNF721 (zinc finger protein 721) | 0.25
ZNF721 (zinc finger protein 721) | 0.05
LONP2 (lon peptidase 2, peroxisomal) | -0.27
LONP2 (lon peptidase 2, peroxisomal) | 0.32
LONP2 (lon peptidase 2, peroxisomal) | -0.68
LONP2 (lon peptidase 2, peroxisomal) | 1.24
SLC25A46 | -1.52 (active)
SLC25A46 | 0.01
SLC25A46 | -1.07
SLC25A46 | 0.18
ZNF599 (zinc finger protein 599) | -0.63
ZNF599 (zinc finger protein 599) | -1.49
ZNF599 (zinc finger protein 599) | -0.64
ZNF599 (zinc finger protein 599) | -0.66
CBR1 (carbonyl reductase 1) | -1.09
CBR1 (carbonyl reductase 1) | -0.38
CBR1 (carbonyl reductase 1) | -0.99
CBR1 (carbonyl reductase 1) | -0.55
CTSB (cathepsin B) | -0.4
CTSB (cathepsin B) | -0.96
CTSB (cathepsin B) | 0.01
CTSB (cathepsin B) | 0.11
HTN3 (histatin 3) | -0.82
HTN3 (histatin 3) | 1.02
HTN3 (histatin 3) | -0.48
HTN3 (histatin 3) | 0.68
KIAA0930 | -0.97
KIAA0930 | -0.87
KIAA0930 | -0.63
KIAA0930 | -1.65 (active)
